These are yes or no findings as the source states them, for the method shown. For some assays here: Binding seen in cells or lysates may run through a third protein. Some entries that bind do so weakly or less than the wild type. Where a sequence is shown, tags or fusion partners need not be part of it.
Legend:
Flag-OSBPL2 (mouse) = target: T1, Flag-OSBPL2 (mouse) (UniProt Q8BX94); test: co-IP; HEK293Ta cells expressing HA-Inpp5e and Flag-OSBPL2, RIPA lysate, anti-FLAG M2 magnetic beads overnight at 4°C, washed at least 5 times with RIPA, Western blot
T1 sequence: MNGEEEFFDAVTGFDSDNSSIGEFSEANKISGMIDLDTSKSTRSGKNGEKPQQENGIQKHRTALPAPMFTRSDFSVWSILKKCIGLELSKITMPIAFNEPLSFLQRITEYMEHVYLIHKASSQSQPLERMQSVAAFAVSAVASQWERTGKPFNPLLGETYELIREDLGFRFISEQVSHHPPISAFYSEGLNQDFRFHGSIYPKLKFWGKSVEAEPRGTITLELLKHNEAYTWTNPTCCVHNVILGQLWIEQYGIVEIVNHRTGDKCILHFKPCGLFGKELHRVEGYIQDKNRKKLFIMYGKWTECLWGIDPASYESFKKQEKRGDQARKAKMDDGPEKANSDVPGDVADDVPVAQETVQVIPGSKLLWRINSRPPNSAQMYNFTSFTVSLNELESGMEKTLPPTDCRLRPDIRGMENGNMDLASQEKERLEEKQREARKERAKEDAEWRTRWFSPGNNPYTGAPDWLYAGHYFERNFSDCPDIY

GST-OSBPL2 (mouse) = target: T2, GST-OSBPL2 (mouse) (UniProt Q8BX94); test: pull-down; purified GST-OSBPL2 (or GST) and His-INPP5E incubated with Glutathione Agarose overnight at 4°C, washed in IP Lysis Buffer at least 3 times, Western blot; both purified
T2 sequence: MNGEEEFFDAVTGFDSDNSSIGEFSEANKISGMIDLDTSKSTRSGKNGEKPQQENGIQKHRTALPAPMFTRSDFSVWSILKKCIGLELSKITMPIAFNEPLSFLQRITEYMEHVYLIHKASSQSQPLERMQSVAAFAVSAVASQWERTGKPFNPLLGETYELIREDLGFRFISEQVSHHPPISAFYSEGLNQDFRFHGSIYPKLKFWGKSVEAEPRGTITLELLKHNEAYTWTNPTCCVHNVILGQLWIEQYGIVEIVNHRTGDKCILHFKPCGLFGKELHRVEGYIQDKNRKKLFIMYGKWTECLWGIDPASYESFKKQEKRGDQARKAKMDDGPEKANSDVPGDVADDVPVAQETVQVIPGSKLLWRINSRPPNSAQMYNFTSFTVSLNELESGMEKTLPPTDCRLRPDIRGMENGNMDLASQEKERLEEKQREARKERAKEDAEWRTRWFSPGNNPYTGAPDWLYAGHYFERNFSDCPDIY

B1: HA-Inpp5e (protein, UniProt Q9JII1 1-647)
chain: MPSKSACLRHTEAPGQLEGRMLQGQPPNTEKKLIPTPGFLPASDSQGSETNPMPPFSIPAKTSNQNPQTKANLITPQPPIRPKLERTLSLDDKGWRRRRFRGSQEDLTVQNGASPCRGSLQDSVAQSPAYSRPLPCLSTSLQEIPKSRRATGSEGGSPSLWSDCLSGMISTSLDLLHRDAASGGPPSRLASLHASHTPPAMDLSIASSSLRTANKVDPEHTDYKLRMQTRLVRAHSNLGPSRPRSPLAGDDHSIHSARSFSLLAPIRTKDIRSRSYLEGSLLASGALLGAEELARYFPDRNMALFVATWNMQGQKELPASLDEFLLPTEADYTQDLYVIGIQEGCSDRREWETRLQETLGPQYVLLSSAAHGVLYMSLFIRRDLIWFCSEVEYSTVTTRIVSQIKTKGALGVSFTFFGTSFLFITSHFTSGDGKVAERLLDYSRTIQALALPRNVPDTNPYRSSAGDVTTRFDEVFWFGDFNFRLSGGRVAVEAFLKQKPEVDVLALLQHDQLTREMKKGSIFRGFEEAEIHFLPSYKFDIGKDTYDSTSKQRTPSYTDRVLYKSRHKGDICPMKYSSCPGIKTSDHRPVYGLFQVKVRPGRDNIPLAAGKFDRELYLIGIKRRISKEIQRQEALKSQSSSAVCTVS
binding (Flag-OSBPL2 (mouse)): binds

B2: His-INPP5E (protein, UniProt Q9JII1 1-647)
chain: MPSKSACLRHTEAPGQLEGRMLQGQPPNTEKKLIPTPGFLPASDSQGSETNPMPPFSIPAKTSNQNPQTKANLITPQPPIRPKLERTLSLDDKGWRRRRFRGSQEDLTVQNGASPCRGSLQDSVAQSPAYSRPLPCLSTSLQEIPKSRRATGSEGGSPSLWSDCLSGMISTSLDLLHRDAASGGPPSRLASLHASHTPPAMDLSIASSSLRTANKVDPEHTDYKLRMQTRLVRAHSNLGPSRPRSPLAGDDHSIHSARSFSLLAPIRTKDIRSRSYLEGSLLASGALLGAEELARYFPDRNMALFVATWNMQGQKELPASLDEFLLPTEADYTQDLYVIGIQEGCSDRREWETRLQETLGPQYVLLSSAAHGVLYMSLFIRRDLIWFCSEVEYSTVTTRIVSQIKTKGALGVSFTFFGTSFLFITSHFTSGDGKVAERLLDYSRTIQALALPRNVPDTNPYRSSAGDVTTRFDEVFWFGDFNFRLSGGRVAVEAFLKQKPEVDVLALLQHDQLTREMKKGSIFRGFEEAEIHFLPSYKFDIGKDTYDSTSKQRTPSYTDRVLYKSRHKGDICPMKYSSCPGIKTSDHRPVYGLFQVKVRPGRDNIPLAAGKFDRELYLIGIKRRISKEIQRQEALKSQSSSAVCTVS
binding (GST-OSBPL2 (mouse)): binds
